In publication PMC4973355:

Assays:
[1] = target: T1, GST-2.SH3 domain of CD2AP (mouse) (UniProt Q9JLQ0); test: pull-down; GST fusions of CD2AP (NH2 terminus, individual SH3 domains) or GST alone; lysates of transiently transfected HEK293T cells; immunoblotting; only the target purified
T1 sequence: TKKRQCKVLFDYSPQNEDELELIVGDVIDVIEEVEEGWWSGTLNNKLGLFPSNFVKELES

[2] = target: T1, GST-2.SH3 domain of CD2AP (mouse); test: pull-down; GST-2.SH3 domain of CD2AP or GST alone; rat glomerular lysate with endogenous tankyrases; immunoblotting; only the target purified

Row | binding [1] | binding [2] | Substance
1 | binds | – | Flag-tagged ankyrin domains of tankyrase 2 (domain or fragment)
2 | – | binds | tankyrase 1 endogenously expressed in rat glomeruli (enzyme)
3 | – | binds | tankyrase 2 endogenously expressed in rat glomeruli (enzyme)

These are yes or no findings as the source states them, for the method shown. In cells and extracts the contact can be indirect. Binding calls can cover weak binding; strength is not graded here. Where a sequence is shown, tags or fusion partners need not be part of it.
